# In the supplement of paper PMC8728848:
# This is one part of the list.
# Legend:
# Experiment in all cases: glycan array binding signal (z-score within array); higher = stronger binding
# Details in all cases: glycan notation: IUPAC condensed, linker removed
# Fuc(a1-2)Gal = target: Fuc(a1-2)Gal
# Summary of the method: (§1)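 The binding signal is a Z-score computed within each array and averaged over linkers. Arrays of the same protein sequence at different concentrations or buffers were also averaged together. Data originate from 3228 arrays in the Consortium for Functional Glycomics database, kept only where the protein sequence was available.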
# Fuc(a1-2)Gal(b1-3)GalNAc = target: Fuc(a1-2)Gal(b1-3)GalNAc
# Summary of the method: as §1
# [1] = target: Fuc(a1-2)Gal(b1-3)GalNAc(a1-3)[Fuc(a1-2)]Gal(b1-4)Glc
# Summary of the method: as §1
# [2] = target: Fuc(a1-2)Gal(b1-3)GalNAc(a1-3)[Fuc(a1-2)]Gal(b1-4)GlcNAc
# Summary of the method: as §1
# [3] = target: Fuc(a1-2)Gal(b1-3)GalNAc(b1-3)Gal
# Summary of the method: as §1
# [4] = target: Fuc(a1-2)Gal(b1-3)GalNAc(b1-3)Gal(a1-4)Gal(b1-4)Glc
# Summary of the method: as §1
# [5] = target: Fuc(a1-2)Gal(b1-3)GalNAc(b1-4)[Neu5Ac(a2-3)]Gal(b1-4)Glc
# Summary of the method: as §1
# Fuc(a1-2)Gal(b1-3)GlcNAc = target: Fuc(a1-2)Gal(b1-3)GlcNAc
# Summary of the method: as §1
# [6] = target: Fuc(a1-2)Gal(b1-3)GlcNAc(b1-2)Man(a1-3)[Fuc(a1-2)Gal(b1-3)GlcNAc(b1-2)Man(a1-6)]Man(b1-4)GlcNAc(b1-4)GlcNAc
# Summary of the method: as §1
# [7] = target: Fuc(a1-2)Gal(b1-3)GlcNAc(b1-2)Man(a1-3)[Fuc(a1-2)Gal(b1-3)GlcNAc(b1-2)Man(a1-6)]Man(b1-4)GlcNAc(b1-4)[Fuc(a1-6)]GlcNAc
# Summary of the method: as §1
# [8] = target: Fuc(a1-2)Gal(b1-3)GlcNAc(b1-3)Gal(b1-4)Glc
# Summary of the method: as §1
# [9] = target: Fuc(a1-2)Gal(b1-3)GlcNAc(b1-3)GalNAc
# Summary of the method: as §1
# [10] = target: Fuc(a1-2)Gal(b1-3)GlcNAc(b1-3)[Fuc(a1-2)Gal(b1-3)GlcNAc(b1-6)]GalNAc
# Summary of the method: as §1
# [11] = target: Fuc(a1-2)Gal(b1-3)GlcNAc(b1-3)[Gal(b1-4)GlcNAc(b1-6)]Gal(b1-4)Glc
# Summary of the method: as §1
# [12] = target: Fuc(a1-2)Gal(b1-3)GlcNAc(b1-3)[Neu5Ac(a2-6)Gal(b1-4)GlcNAc(b1-6)]Gal(b1-4)Glc
# Summary of the method: as §1
# [13] = target: Fuc(a1-2)Gal(b1-3)GlcNAc6S
# Summary of the method: as §1
# [14] = target: Fuc(a1-2)Gal(b1-3)[Fuc(a1-4)]GlcNAc
# Summary of the method: as §1
# [15] = target: Fuc(a1-2)Gal(b1-3)[Fuc(a1-4)]GlcNAc(b1-2)Man(a1-3)[Fuc(a1-2)Gal(b1-3)[Fuc(a1-4)]GlcNAc(b1-2)Man(a1-3)]Man(b1-4)GlcNAc(b1-4)GlcNAc
# Summary of the method: as §1
# [16] = target: Fuc(a1-2)Gal(b1-3)[Fuc(a1-4)]GlcNAc(b1-2)Man(a1-3)[Fuc(a1-2)Gal(b1-3)[Fuc(a1-4)]GlcNAc(b1-2)Man(a1-6)]Man(b1-4)GlcNAc(b1-4)[Fuc(a1-6)]GlcNAc(b1-4)[Fuc(a1-6)]GlcNAc
# Summary of the method: as §1
# [17] = target: Fuc(a1-2)Gal(b1-3)[Fuc(a1-4)]GlcNAc(b1-3)[Fuc(a1-3)[Gal(b1-4)]GlcNAc(b1-6)]Gal(b1-4)Glc
# Summary of the method: as §1
# [18] = target: Fuc(a1-2)Gal(b1-3)[Fuc(a1-4)]GlcNAc(b1-3)[Gal(b1-4)GlcNAc(b1-6)]Gal(b1-4)Glc
# Summary of the method: as §1
# Fuc(a1-2)Gal(b1-4)Glc = target: Fuc(a1-2)Gal(b1-4)Glc
# Summary of the method: as §1
# Fuc(a1-2)Gal(b1-4)Glc6S = target: Fuc(a1-2)Gal(b1-4)Glc6S
# Summary of the method: as §1
# Fuc(a1-2)Gal(b1-4)GlcNAc = target: Fuc(a1-2)Gal(b1-4)GlcNAc
# Summary of the method: as §1
# [19] = target: Fuc(a1-2)Gal(b1-4)GlcNAc(b1-2)Man
# Summary of the method: as §1
# [20] = target: Fuc(a1-2)Gal(b1-4)GlcNAc(b1-2)Man(a1-3)[Fuc(a1-2)Gal(b1-4)GlcNAc(b1-2)Man(a1-6)]Man(b1-4)GlcNAc(b1-4)GlcNAc
# Summary of the method: as §1
# [21] = target: Fuc(a1-2)Gal(b1-4)GlcNAc(b1-2)Man(a1-3)[Fuc(a1-2)Gal(b1-4)GlcNAc(b1-2)Man(a1-6)]Man(b1-4)GlcNAc(b1-4)[Fuc(a1-6)]GlcNAc
# Summary of the method: as §1
# [22] = target: Fuc(a1-2)Gal(b1-4)GlcNAc(b1-2)[Fuc(a1-2)Gal(b1-4)GlcNAc(b1-4)]Man(a1-3)[Fuc(a1-2)Gal(b1-4)GlcNAc(b1-2)Man(a1-6)]Man(b1-4)GlcNAc(b1-4)GlcNAc
# Summary of the method: as §1
# [23] = target: Fuc(a1-2)Gal(b1-4)GlcNAc(b1-3)Gal(b1-4)GlcNAc
# Summary of the method: as §1
# [24] = target: Fuc(a1-2)Gal(b1-4)GlcNAc(b1-3)Gal(b1-4)GlcNAc(b1-2)Man(a1-3)[Fuc(a1-2)Gal(b1-4)GlcNAc(b1-3)Gal(b1-4)GlcNAc(b1-2)Man(a1-6)]Man(b1-4)GlcNAc(b1-4)GlcNAc
# Summary of the method: as §1
# [25] = target: Fuc(a1-2)Gal(b1-4)GlcNAc(b1-3)Gal(b1-4)GlcNAc(b1-3)Gal(b1-4)GlcNAc
# Summary of the method: as §1
# [26] = target: Fuc(a1-2)Gal(b1-4)GlcNAc(b1-3)GalNAc
# Summary of the method: as §1
# [27] = target: Fuc(a1-2)Gal(b1-4)GlcNAc(b1-3)[Fuc(a1-2)Gal(b1-4)GlcNAc(b1-6)]GalNAc
# Summary of the method: as §1
# [28] = target: Fuc(a1-2)Gal(b1-4)GlcNAc(b1-3)[Fuc(a1-3)[Gal(b1-4)]GlcNAc(b1-6)]Gal(b1-4)Glc
# Summary of the method: as §1
# [29] = target: Fuc(a1-2)Gal(b1-4)GlcNAc(b1-6)GalNAc
# Summary of the method: as §1
# [30] = target: Fuc(a1-2)Gal(b1-4)GlcNAc6S
# Summary of the method: as §1
# [31] = target: Fuc(a1-2)Gal(b1-4)[Fuc(a1-3)]GlcNAc
# Summary of the method: as §1
binder,measurement,setting,value
truncCC1G-10077 (Coprinopsis cinerea) (protein) MHHHHHHHHPLPSPGPGWVLIQNGGTGKFLCSTPSGDIGTADGPETVYDYSVQWRFIQREYTGVYHVVNRATGAYLRQIGTSMPSIGLAEENDDELKDWWMLETYDNSEIGLASIISRWTGNVLDHYGGVSVQALDNNTENSYRSWAIIPARDWLTSFSLVNGQGGLCLAAQYAREETRLSTTANVNDFHAQWVFRKPSGSSGYTIQNKYNNHYVGGTSARWELVVCCNKYFGIRNTSTQKYLAIEDGQVTFQDQDMTDRKQCWELCSGRATDTSGNDYDLIYMDDDLLEVMIPWVGDKQGDLKHYIEKRATKKPPKDKGGWQLPAAGLIKKPKFNDIRQLLQELIEQWEWDVVNEEREQIQTLVSIDEAEARRLLGRRPHPDIVAAYQRSRSSTLFRIDRQGYFNIAGDRYVNIQGQYGDDSYFHIALPVGVRFGREQIRRFLRDSLDRSTSVTITPTTCKPPSGGPDYNRDPDSDGDNSWIKWTIAVVGTSAIKHSEL,glycan array binding signal (z-score),Fuc(a1-2)Gal,-1.02
same,glycan array binding signal (z-score),Fuc(a1-2)Gal(b1-3)GalNAc,-0.437
same,glycan array binding signal (z-score),[1],-0.99
same,glycan array binding signal (z-score),[2],1.23
same,glycan array binding signal (z-score),[3],-0.469
same,glycan array binding signal (z-score),[4],-0.396
same,glycan array binding signal (z-score),[5],-0.275
same,glycan array binding signal (z-score),Fuc(a1-2)Gal(b1-3)GlcNAc,-0.176
same,glycan array binding signal (z-score),[6],3.72
same,glycan array binding signal (z-score),[7],-0.456
same,glycan array binding signal (z-score),[8],-0.856
same,glycan array binding signal (z-score),[9],0.268
same,glycan array binding signal (z-score),[10],1.98
same,glycan array binding signal (z-score),[11],-0.333
same,glycan array binding signal (z-score),[12],-0.768
same,glycan array binding signal (z-score),[13],0.74
same,glycan array binding signal (z-score),[14],-1.07
same,glycan array binding signal (z-score),[15],0.415
same,glycan array binding signal (z-score),[16],0.247
same,glycan array binding signal (z-score),[17],-0.929
same,glycan array binding signal (z-score),[18],0.308
same,glycan array binding signal (z-score),Fuc(a1-2)Gal(b1-4)Glc,-0.216
same,glycan array binding signal (z-score),Fuc(a1-2)Gal(b1-4)Glc6S,0.121
same,glycan array binding signal (z-score),Fuc(a1-2)Gal(b1-4)GlcNAc,-0.991
same,glycan array binding signal (z-score),[19],0.411
same,glycan array binding signal (z-score),[20],1.35
same,glycan array binding signal (z-score),[21],0.64
same,glycan array binding signal (z-score),[22],1.51
same,glycan array binding signal (z-score),[23],-0.544
same,glycan array binding signal (z-score),[24],-0.136
same,glycan array binding signal (z-score),[25],-0.111
same,glycan array binding signal (z-score),[26],1.06
same,glycan array binding signal (z-score),[27],2.81
same,glycan array binding signal (z-score),[28],-1.04
same,glycan array binding signal (z-score),[29],1.06
same,glycan array binding signal (z-score),[30],-0.167
same,glycan array binding signal (z-score),[31],-0.845

# In another format: entries from further up.
binder	measurement	setting	value
truncCC1G-10077 (Coprinopsis cinerea) (protein) MHHHHHHHHPLPSPGPGWVLIQNGGTGKFLCSTPSGDIGTADGPETVYDYSVQWRFIQREYTGVYHVVNRATGAYLRQIGTSMPSIGLAEENDDELKDWWMLETYDNSEIGLASIISRWTGNVLDHYGGVSVQALDNNTENSYRSWAIIPARDWLTSFSLVNGQGGLCLAAQYAREETRLSTTANVNDFHAQWVFRKPSGSSGYTIQNKYNNHYVGGTSARWELVVCCNKYFGIRNTSTQKYLAIEDGQVTFQDQDMTDRKQCWELCSGRATDTSGNDYDLIYMDDDLLEVMIPWVGDKQGDLKHYIEKRATKKPPKDKGGWQLPAAGLIKKPKFNDIRQLLQELIEQWEWDVVNEEREQIQTLVSIDEAEARRLLGRRPHPDIVAAYQRSRSSTLFRIDRQGYFNIAGDRYVNIQGQYGDDSYFHIALPVGVRFGREQIRRFLRDSLDRSTSVTITPTTCKPPSGGPDYNRDPDSDGDNSWIKWTIAVVGTSAIKHSEL	glycan array binding signal (z-score)	[15]	0.415
same	glycan array binding signal (z-score)	[31]	-0.845
